Measurements reported in the supplement of paper PMC7877785.
± gives the uncertainty stated by the source. Many entries were measured with a wide error.

Assay: self-splicing fitness, log relative to wild type (ln ratio); higher = more splicing; Tetrahymena group I intron in knt gene, E. coli kanamycin selection, DiMSum; sequences stand for … in CUCUCU…GGAGGGAAAAGUUAUCAGGCAUGCACCUGGUAGCUAGUCUUUAAACCAAUAGAUUGCAUCGGUUUAAAAGGCAAGACCGUCAAAUUGCGGGAAAGGGGUCAACAGCCGUUCAGUACCAAGUCUCAGGGGAAACUUUGAGAUGGCCUUGCAAAGGGUAUGGUAAUAAGCUGACGGACAUGGUCCUAACCACGCAGCCAAGUCCUAAGUCAACAGAUCUUCUGUUGAUAUGGAUGCAGUUCACAGACUAAAUGUCGGUCGGGGAAGAUGUAUUCUUCUCAUAAGAUAUAGUCGGACCUCUCCUUAAUGGGAGCUAGCGGAUGAAGUGAUGCAACACUGGAGCCGCUGGGAACUAAUUUGUAUGCGAAAGUAUAUUGAUUAGUUUUGGAGUACUCGUGGUCG
Outline: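 Library with all eight P1ex-region intron nucleotides randomised, intron inside the knt kanamycin-resistance gene on pET-22b(+), in E. coli BL21(DE3). Cells grew overnight at 37°C or 30°C on LB agar with or without 25 μg/mL kanamycin (plus 100 μg/mL carbenicillin, 50 μM IPTG, 0.2% rhamnose), in six replicate transformations. Pooled colonies were amplicon-sequenced on Illumina HiSeq 2500. DiMSum fitness is the error-weighted combination of wild-type-normalised replicate fold changes, kanamycin versus none.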

| Sequence | self-splicing fitness (ln) (30 °C) | self-splicing fitness (ln) (37 °C) |
| --- | --- | --- |
| UUUGAGCAAUAUUACGACCG | -4.38 ± 0.72 | – |
| CGGGAGCAAUAUUACGCUCU | – | -2.78 ± 0.75 |
| GCCGAGCAAUAUUACGCUGG | -4.11 ± 0.52 | – |
| UCCCAGCAAUAUUACGCUUC | -2.73 ± 0.19 | -2.76 ± 0.48 |
| GGUUAGCAAUAUUACGCAGA | -1.17 ± 0.24 | -2.02 ± 0.26 |
| UUUGAGCAAUAUUACGACCA | -3.81 ± 0.75 | -0.595 ± 1.4 |
| GGUGAGCAAUAUUACGCACA | -1.07 ± 0.15 | -0.679 ± 0.17 |
| UCGUAGCAAUAUUACGCAUC | -4.16 ± 1 | – |
| UAUUAGCAAUAUUACGUUUU | -2.42 ± 0.58 | – |
| GUUGAGCAAUAUUACGACCC | -0.589 ± 0.78 | – |
| AAUAAGCAAUAUUACGAAGG | -3.39 ± 0.48 | -2.04 ± 0.39 |
| CUCGAGCAAUAUUACGCAUU | – | -3.97 ± 0.51 |
| CUCUAGCAAUAUUACGGCGA | -3.08 ± 0.76 | -1.76 ± 0.58 |
| CCCUAGCAAUAUUACGCUGU | -4.59 ± 0.31 | -2.63 ± 0.21 |
| ACGUAGCAAUAUUACGAAAC | -2.02 ± 0.45 | -2.26 ± 0.4 |
| GCGAAGCAAUAUUACGCCCA | -2.63 ± 0.5 | -0.595 ± 1 |
| GUGGAGCAAUAUUACGAGAA | 0.234 ± 0.67 | -1.37 ± 1.2 |
| GCAGAGCAAUAUUACGAGGC | -2.71 ± 0.65 | -1.13 ± 0.71 |
| CUGGAGCAAUAUUACGGCGA | – | -3.07 ± 1 |
| AAGUAGCAAUAUUACGCGGC | -3.47 ± 0.53 | – |
| CCUGAGCAAUAUUACGGUCU | -5.01 ± 0.51 | – |
| CUCGAGCAAUAUUACGCCAG | -3.33 ± 0.54 | -1.82 ± 0.52 |
| CCGCAGCAAUAUUACGCGUU | -3.51 ± 0.14 | -2.29 ± 0.14 |
| UUGCAGCAAUAUUACGGAAC | – | -1.54 ± 0.6 |

| Sequence | self-splicing fitness (ln) (30 °C) | self-splicing fitness (ln) (37 °C) |
| --- | --- | --- |
| AUUGAGCAAUAUUACGCUAG | -4.38 ± 0.72 | – |
| AGAAAGCAAUAUUACGCGGC | -3.54 ± 1 | -2.46 ± 0.55 |
| CACUAGCAAUAUUACGCCUC | -3.51 ± 0.73 | – |
| AUGUAGCAAUAUUACGUCAC | -1.55 ± 0.67 | – |
| UUGGAGCAAUAUUACGCGCC | – | -0.778 ± 0.71 |
| ACUCAGCAAUAUUACGAUAA | -1.25 ± 0.078 | -0.67 ± 0.097 |
| CGUUAGCAAUAUUACGACCC | – | -1.1 ± 0.75 |
| UCUUAGCAAUAUUACGAUUC | – | -2.77 ± 0.75 |
| AGAGAGCAAUAUUACGAAGA | – | -0.681 ± 1.4 |
| GGGAAGCAAUAUUACGACGC | -0.0345 ± 0.14 | -0.0751 ± 0.18 |
| UGUGAGCAAUAUUACGAAAG | -2.98 ± 0.18 | -2.69 ± 0.27 |
| UGGGAGCAAUAUUACGUAGU | -4.19 ± 0.53 | – |
| GGAGAGCAAUAUUACGCUUC | -0.483 ± 0.67 | – |
| CUUAAGCAAUAUUACGCCGC | -4.93 ± 1 | -1.09 ± 0.52 |
| UAUCAGCAAUAUUACGUGUA | -0.198 ± 0.069 | 0.204 ± 0.079 |
| GAAGAGCAAUAUUACGGUGC | -4.64 ± 0.73 | – |
| GACAAGCAAUAUUACGGUGC | -2.77 ± 0.21 | -1.63 ± 0.24 |
| GCGGAGCAAUAUUACGGUGA | – | -2.15 ± 0.79 |
| CGGUAGCAAUAUUACGUGAC | -4.99 ± 0.59 | – |
| CUGCAGCAAUAUUACGCGAU | -1.12 ± 0.09 | -0.167 ± 0.12 |
| CGAAAGCAAUAUUACGGACG | -2.73 ± 0.21 | -2.25 ± 0.22 |
| CAGCAGCAAUAUUACGGUUC | -2.92 ± 0.26 | -1.5 ± 0.17 |
| CGAGAGCAAUAUUACGAGAU | -3.59 ± 0.6 | -2.2 ± 1.1 |
| GGUGAGCAAUAUUACGUUCA | -3.86 ± 0.73 | – |

| Sequence | self-splicing fitness (ln) (30 °C) | self-splicing fitness (ln) (37 °C) |
| --- | --- | --- |
| UUAGAGCAAUAUUACGACGC | – | -1.83 ± 0.56 |
| GAUAAGCAAUAUUACGCCUC | -3.74 ± 0.53 | – |
| UGGCAGCAAUAUUACGUGCC | -4.23 ± 0.73 | – |
| CCCGAGCAAUAUUACGCUCU | -4.32 ± 1 | – |
| AUUGAGCAAUAUUACGAGUA | -3.25 ± 0.66 | -1.59 ± 0.56 |
| CAACAGCAAUAUUACGGGAU | -3.7 ± 0.15 | -2.08 ± 0.15 |
| GGUCAGCAAUAUUACGAACC | -2.47 ± 1.1 | -0.778 ± 1.4 |
| AAAGAGCAAUAUUACGAGAA | – | -1.62 ± 1.1 |
| GUUCAGCAAUAUUACGGACC | -4.01 ± 0.6 | – |
| UGAGAGCAAUAUUACGUACU | -2.16 ± 0.5 | – |
| GUGUAGCAAUAUUACGCUGG | -3.59 ± 0.38 | -1.54 ± 0.22 |
| UAAGAGCAAUAUUACGCUAA | -3.89 ± 0.6 | – |
| CUCGAGCAAUAUUACGCCCU | -2.97 ± 0.63 | -2.07 ± 1.1 |
| UUGUAGCAAUAUUACGAUGC | -5.04 ± 0.58 | – |
| UACUAGCAAUAUUACGACGG | -0.517 ± 0.12 | -0.301 ± 0.15 |
| GUUCAGCAAUAUUACGAAAC | -1.48 ± 0.23 | -0.734 ± 0.22 |
| UCCUAGCAAUAUUACGACAC | – | -0.693 ± 0.58 |
| GUCUAGCAAUAUUACGGCUA | -3.13 ± 0.74 | – |
| ACAUAGCAAUAUUACGAGAC | -3.32 ± 0.75 | -3.09 ± 0.52 |
| GGCGAGCAAUAUUACGAGAC | – | -1.1 ± 0.92 |
| UUUGAGCAAUAUUACGAUGC | -4.71 ± 0.51 | – |
| UGGCAGCAAUAUUACGGCUU | -0.209 ± 0.075 | 0.316 ± 0.098 |
| GGGGAGCAAUAUUACGGAUA | -2.25 ± 0.56 | -1.79 ± 0.82 |
| GCUGAGCAAUAUUACGGUUG | -3.64 ± 0.31 | -2.67 ± 0.35 |

| Sequence | self-splicing fitness (ln) (30 °C) | self-splicing fitness (ln) (37 °C) |
| --- | --- | --- |
| CUCGAGCAAUAUUACGAAUC | -3.12 ± 0.62 | -4.24 ± 1 |
| UUGUAGCAAUAUUACGGUAU | – | -2.42 ± 0.54 |
| CGGGAGCAAUAUUACGGGCC | – | -2.06 ± 0.56 |
| GGGGAGCAAUAUUACGAUGC | – | 0.834 ± 0.65 |
| ACAGAGCAAUAUUACGCAGU | -4.31 ± 0.72 | – |
| GCGAAGCAAUAUUACGGCCC | -0.653 ± 0.59 | – |
| UAGGAGCAAUAUUACGCGGC | – | -2.67 ± 1.1 |
| UAAUAGCAAUAUUACGACCC | – | -1.78 ± 1.2 |
| AAUGAGCAAUAUUACGGGCG | -4.51 ± 0.51 | – |
| UAGGAGCAAUAUUACGCAUC | -3.06 ± 1.1 | – |
| AGGGAGCAAUAUUACGCAGC | – | -1.64 ± 0.73 |
| UCGCAGCAAUAUUACGAGCG | -1.97 ± 0.12 | -0.806 ± 0.13 |
| AGUCAGCAAUAUUACGGGGC | -4.04 ± 0.72 | – |
| CUUCAGCAAUAUUACGGCCA | -3.53 ± 0.76 | -2.05 ± 1.1 |
| GCAUAGCAAUAUUACGUACC | -0.706 ± 0.19 | -0.405 ± 0.26 |
| CUCGAGCAAUAUUACGCCCC | – | -0.595 ± 0.82 |
| UCUUAGCAAUAUUACGCUUA | -2.97 ± 0.52 | – |
| CAAUAGCAAUAUUACGAACA | -1.06 ± 0.51 | – |
| GGCGAGCAAUAUUACGAAAA | -3.23 ± 1 | – |
| UUAGAGCAAUAUUACGCUAC | – | -3.3 ± 0.6 |
| CACGAGCAAUAUUACGUAGG | -3.91 ± 0.51 | – |
| AUUGAGCAAUAUUACGGGAC | – | -3.06 ± 0.52 |
| GUUGAGCAAUAUUACGUGGU | – | -3.16 ± 0.61 |
| AACGAGCAAUAUUACGAUCC | – | -2.9 ± 1.1 |
